Paper PMC10685313

B1: progesterone receptor membrane component 1, Myc-tagged wild type (PGRMC1-myc) [not stated] / two pore channel TPC1, GFP-tagged (TPC1-GFP) [human] (parent)
chain 1: MAAEDVVATGADPSDLESGGLLHEIFTSPLNLLLLGLCIFLLYKIVRGDQPAASGDSDDDEPPPLPRLKRRDFTPAELRRFDGVQDPRILMAINGKVFDVTKGRKFYGPEGPYGVFAGRDASRGLATFCLDKEALKDEYDDLSDLTAAQQETLSDWESQFTFKYHHVGKLLKEGEEPTVYSDEEEPKDESARKND
chain 2: not shown

Variants of: B1
Experiment: co-immunoprecipitation (TPC1-GFP IP, anti-myc Western blot densitometry)
Conditions: with two pore channel TPC1, GFP-tagged (TPC1-GFP) [human]; U2OS cells co-expressing PGRMC1-myc constructs and TPC1-GFP; parent: 100; read off a plot

How did the percent of parent turn out when chain 1 Y113F was run?
Its percent of parent is 31 % ctrl.
